Our source for the log2 fold change values is the supplement of paper PMC12819154, “High-throughput peptide-centric local stability assay extends protein–ligand identification to membrane proteins, tissues and bacteria” (Nature Structural & Molecular Biology, 2025).

The chains behind the UniProt entries cited, without tags or fusion partners. Where a name states a change or a piece, a line headed by the entry shows the natural chain unless it says otherwise.
UniProt Q9QZS2: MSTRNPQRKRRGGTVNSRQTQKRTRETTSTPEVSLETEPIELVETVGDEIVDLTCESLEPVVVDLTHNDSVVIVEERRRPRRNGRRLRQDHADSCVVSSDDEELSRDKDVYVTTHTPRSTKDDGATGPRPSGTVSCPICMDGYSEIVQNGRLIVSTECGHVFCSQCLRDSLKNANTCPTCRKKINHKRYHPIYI
UniProt Q9QXV0: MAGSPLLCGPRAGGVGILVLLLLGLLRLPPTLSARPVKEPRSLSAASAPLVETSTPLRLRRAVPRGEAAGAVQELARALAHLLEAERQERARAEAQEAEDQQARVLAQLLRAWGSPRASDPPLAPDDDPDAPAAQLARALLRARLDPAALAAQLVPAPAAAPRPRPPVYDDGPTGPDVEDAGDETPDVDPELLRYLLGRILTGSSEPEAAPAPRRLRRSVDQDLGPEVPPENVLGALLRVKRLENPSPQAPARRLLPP
UniProt Q9WV70, whole entry: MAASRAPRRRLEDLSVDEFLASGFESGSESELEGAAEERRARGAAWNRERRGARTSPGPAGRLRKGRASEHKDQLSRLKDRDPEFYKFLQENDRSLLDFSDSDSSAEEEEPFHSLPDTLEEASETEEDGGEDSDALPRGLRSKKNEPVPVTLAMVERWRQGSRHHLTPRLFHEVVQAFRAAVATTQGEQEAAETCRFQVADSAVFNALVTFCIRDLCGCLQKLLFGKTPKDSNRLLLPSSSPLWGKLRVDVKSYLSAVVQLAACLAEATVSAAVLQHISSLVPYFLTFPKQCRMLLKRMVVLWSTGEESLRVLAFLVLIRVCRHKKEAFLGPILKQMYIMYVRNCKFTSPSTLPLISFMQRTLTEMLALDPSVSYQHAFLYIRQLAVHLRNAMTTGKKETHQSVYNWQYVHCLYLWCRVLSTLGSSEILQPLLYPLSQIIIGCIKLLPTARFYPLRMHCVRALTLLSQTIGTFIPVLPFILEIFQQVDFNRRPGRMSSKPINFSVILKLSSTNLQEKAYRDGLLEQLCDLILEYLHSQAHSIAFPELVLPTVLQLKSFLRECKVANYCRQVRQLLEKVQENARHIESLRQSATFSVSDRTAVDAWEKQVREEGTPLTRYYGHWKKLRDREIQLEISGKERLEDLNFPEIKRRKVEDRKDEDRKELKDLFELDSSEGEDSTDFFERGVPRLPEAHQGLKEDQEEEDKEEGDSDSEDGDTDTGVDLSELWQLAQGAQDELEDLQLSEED
UniProt Q9R1C0, whole entry: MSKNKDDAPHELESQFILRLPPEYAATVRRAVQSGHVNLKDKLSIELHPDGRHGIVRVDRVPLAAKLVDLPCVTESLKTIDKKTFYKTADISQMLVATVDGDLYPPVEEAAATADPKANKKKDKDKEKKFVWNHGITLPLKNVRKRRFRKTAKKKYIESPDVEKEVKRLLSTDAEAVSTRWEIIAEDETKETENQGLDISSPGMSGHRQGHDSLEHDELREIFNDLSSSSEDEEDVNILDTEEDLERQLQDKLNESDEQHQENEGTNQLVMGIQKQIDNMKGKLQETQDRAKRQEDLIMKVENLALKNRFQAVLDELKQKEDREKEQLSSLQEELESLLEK
UniProt Q9R087: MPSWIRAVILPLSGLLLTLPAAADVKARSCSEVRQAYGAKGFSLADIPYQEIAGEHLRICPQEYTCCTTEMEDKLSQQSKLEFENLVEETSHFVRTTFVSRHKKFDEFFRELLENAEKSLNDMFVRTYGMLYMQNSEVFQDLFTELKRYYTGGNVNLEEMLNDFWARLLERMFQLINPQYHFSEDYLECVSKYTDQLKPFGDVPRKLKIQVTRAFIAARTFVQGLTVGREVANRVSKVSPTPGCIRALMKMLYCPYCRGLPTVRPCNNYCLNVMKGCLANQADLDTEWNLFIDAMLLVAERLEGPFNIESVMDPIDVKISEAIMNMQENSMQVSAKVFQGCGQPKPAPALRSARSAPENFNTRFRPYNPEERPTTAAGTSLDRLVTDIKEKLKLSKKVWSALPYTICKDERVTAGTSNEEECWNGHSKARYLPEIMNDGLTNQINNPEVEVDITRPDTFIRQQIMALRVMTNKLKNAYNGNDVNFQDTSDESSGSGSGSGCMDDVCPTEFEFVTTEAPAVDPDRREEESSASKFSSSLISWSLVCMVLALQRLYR
UniProt Q9QZI8: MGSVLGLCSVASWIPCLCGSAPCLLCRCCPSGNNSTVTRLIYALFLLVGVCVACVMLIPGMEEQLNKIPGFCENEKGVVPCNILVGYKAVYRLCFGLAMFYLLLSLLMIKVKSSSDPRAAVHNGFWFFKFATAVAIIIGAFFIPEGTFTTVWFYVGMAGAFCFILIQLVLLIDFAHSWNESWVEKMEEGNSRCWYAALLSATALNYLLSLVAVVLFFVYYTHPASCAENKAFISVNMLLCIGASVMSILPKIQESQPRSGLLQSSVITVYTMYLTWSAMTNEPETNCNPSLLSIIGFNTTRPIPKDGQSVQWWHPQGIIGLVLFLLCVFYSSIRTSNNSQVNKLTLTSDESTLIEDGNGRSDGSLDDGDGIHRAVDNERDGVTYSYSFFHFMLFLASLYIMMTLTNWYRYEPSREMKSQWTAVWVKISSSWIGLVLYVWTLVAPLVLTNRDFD
UniProt Q9QZM2: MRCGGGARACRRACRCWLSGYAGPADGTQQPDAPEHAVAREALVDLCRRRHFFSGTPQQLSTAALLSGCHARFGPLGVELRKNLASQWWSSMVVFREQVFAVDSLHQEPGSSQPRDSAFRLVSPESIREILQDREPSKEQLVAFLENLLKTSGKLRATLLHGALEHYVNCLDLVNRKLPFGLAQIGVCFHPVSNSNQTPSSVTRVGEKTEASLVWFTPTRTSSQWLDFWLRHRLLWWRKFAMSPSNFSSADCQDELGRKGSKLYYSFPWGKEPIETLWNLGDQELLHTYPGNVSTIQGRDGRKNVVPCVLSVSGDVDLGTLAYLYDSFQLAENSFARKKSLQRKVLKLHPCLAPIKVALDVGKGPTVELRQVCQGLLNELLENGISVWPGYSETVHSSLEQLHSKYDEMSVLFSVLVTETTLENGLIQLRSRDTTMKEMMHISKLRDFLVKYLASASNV
UniProt Q9QYB1: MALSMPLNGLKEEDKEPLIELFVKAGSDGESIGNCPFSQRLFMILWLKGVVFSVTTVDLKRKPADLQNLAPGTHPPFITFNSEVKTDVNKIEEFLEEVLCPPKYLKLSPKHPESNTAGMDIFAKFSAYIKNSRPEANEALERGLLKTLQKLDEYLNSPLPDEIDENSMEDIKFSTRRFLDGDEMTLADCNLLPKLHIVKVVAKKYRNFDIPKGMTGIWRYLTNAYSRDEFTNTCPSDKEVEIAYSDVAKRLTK
UniProt Q9WUB0: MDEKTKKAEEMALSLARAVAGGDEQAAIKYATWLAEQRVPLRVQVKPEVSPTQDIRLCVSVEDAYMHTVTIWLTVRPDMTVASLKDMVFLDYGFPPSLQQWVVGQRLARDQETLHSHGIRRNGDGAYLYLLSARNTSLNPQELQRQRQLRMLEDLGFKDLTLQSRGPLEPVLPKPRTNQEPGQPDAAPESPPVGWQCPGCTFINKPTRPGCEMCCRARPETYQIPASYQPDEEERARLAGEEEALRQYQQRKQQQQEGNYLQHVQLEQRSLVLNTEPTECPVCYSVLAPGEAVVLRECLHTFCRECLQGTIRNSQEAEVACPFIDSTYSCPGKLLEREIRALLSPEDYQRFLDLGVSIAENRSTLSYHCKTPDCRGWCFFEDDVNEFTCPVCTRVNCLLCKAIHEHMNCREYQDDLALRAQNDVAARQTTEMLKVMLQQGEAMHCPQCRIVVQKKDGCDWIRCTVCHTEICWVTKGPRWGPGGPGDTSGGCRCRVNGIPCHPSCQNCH

This is one part of the list. Most entries show no effect beyond the scatter of the controls.

Compound in this assay: CN[C@@H]1C[C@H]2O[C@@](C)([C@@H]1OC)n1c3ccccc3c3c4c(c5c6ccccc6n2c5c31)C(=O)NC4 [staurosporine]
Briefly: log2 fold change of tryptic peptide abundance, ligand vs vehicle (limited proteolysis) (log2 ratio); higher = more trypsin-susceptible (destabilized). To be noted: ligand concentration: 20 uM; sample: mouse liver crude lysate; replicate design: treated separately.
With “UniProt Q9QZS2 (peptide sequence: DKDVYVTTHTPR, peptide start residue: 107)”, the log2 fold change stood at 0.0879.

For the target “UniProt Q9QXV0 (peptide sequence: GEAAGAVQELAR, peptide start residue: 66)”, the log2 fold change is -0.371.

“UniProt Q9WV70 (peptide sequence: DRDPEFYK, peptide start residue: 80)”: the log2 fold change was -0.512.

For the target “UniProt Q9R1C0 (peptide sequence: VDRVPLAAK, peptide start residue: 58)”, the log2 fold change worked out at 0.559.

As to “UniProt Q9R087 (peptide sequence: VTAGTSNEEECWNGHSK, peptide start residue: 412)”, the log2 fold change was -0.14.

As to “UniProt Q9QZI8 (peptide sequence: SDGSLDDGDGIHR, peptide start residue: 361)”, the log2 fold change is -0.00247.

As for “UniProt Q9QZM2 (peptide sequence: EMMHISK, peptide start residue: 438)”, the log2 fold change was 0.14.

Take “UniProt Q9QYB1 (peptide sequence: NSRPEANEALER, peptide start residue: 131)”: the log2 fold change is -0.0717.

Take “UniProt Q9WUB0 (peptide sequence: AVAGGDEQAAIK, peptide start residue: 18)”: the log2 fold change was -0.299.
